# From the supplement of paper PMC6411743
# Amino acid sequences for entries named in this document (tags omitted). A change or cut given only in a name is not applied to a line headed by its entry.
# UniProt O95696: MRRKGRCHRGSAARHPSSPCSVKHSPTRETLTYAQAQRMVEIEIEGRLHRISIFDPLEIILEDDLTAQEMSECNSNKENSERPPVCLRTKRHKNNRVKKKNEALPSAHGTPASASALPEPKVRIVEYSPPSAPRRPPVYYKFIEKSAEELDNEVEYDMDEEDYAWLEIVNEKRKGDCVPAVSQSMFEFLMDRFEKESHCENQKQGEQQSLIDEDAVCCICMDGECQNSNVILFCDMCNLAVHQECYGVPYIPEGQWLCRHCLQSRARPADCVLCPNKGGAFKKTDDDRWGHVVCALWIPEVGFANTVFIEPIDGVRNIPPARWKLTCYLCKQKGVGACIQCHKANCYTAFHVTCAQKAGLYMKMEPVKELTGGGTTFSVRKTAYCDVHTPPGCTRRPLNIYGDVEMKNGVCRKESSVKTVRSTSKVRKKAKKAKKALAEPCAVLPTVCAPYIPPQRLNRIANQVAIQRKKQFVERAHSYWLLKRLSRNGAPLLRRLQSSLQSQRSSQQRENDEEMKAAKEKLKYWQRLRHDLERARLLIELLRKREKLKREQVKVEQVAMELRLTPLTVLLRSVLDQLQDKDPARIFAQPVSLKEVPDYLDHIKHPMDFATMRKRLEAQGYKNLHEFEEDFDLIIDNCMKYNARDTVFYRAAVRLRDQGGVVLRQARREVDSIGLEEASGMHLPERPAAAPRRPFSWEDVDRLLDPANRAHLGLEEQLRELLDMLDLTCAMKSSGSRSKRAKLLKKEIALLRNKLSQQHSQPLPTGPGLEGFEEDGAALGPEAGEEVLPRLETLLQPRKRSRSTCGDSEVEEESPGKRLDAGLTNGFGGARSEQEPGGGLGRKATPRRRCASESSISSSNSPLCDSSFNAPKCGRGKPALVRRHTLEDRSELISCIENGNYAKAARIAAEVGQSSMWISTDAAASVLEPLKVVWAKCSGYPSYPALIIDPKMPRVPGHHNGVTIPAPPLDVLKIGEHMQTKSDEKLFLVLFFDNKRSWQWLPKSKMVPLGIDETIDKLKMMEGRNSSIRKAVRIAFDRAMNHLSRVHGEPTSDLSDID
# UniProt O75787, whole entry: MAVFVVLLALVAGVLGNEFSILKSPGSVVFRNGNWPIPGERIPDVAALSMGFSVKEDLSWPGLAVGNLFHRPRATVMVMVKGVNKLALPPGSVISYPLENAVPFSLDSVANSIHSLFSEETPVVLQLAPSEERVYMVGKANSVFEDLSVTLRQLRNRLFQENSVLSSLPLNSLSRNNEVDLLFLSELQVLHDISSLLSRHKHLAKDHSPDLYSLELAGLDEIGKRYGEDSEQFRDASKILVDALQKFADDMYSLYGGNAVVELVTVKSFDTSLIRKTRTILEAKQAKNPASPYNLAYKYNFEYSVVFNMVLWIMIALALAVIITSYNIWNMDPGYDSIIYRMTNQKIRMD
# UniProt O75419: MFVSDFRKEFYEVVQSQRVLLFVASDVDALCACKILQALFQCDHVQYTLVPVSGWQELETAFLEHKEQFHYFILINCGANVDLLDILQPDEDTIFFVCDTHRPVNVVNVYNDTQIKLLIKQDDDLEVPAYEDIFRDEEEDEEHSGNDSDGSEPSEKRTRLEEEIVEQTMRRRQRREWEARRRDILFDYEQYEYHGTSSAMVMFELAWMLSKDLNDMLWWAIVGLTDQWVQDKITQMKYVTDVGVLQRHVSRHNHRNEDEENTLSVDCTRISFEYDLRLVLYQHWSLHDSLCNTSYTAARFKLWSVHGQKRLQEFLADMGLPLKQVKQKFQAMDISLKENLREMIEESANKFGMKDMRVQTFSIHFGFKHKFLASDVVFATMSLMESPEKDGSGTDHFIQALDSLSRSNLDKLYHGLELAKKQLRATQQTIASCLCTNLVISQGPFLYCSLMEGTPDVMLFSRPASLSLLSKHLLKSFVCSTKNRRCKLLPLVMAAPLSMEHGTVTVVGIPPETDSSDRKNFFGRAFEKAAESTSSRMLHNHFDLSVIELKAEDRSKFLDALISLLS
# UniProt O95429: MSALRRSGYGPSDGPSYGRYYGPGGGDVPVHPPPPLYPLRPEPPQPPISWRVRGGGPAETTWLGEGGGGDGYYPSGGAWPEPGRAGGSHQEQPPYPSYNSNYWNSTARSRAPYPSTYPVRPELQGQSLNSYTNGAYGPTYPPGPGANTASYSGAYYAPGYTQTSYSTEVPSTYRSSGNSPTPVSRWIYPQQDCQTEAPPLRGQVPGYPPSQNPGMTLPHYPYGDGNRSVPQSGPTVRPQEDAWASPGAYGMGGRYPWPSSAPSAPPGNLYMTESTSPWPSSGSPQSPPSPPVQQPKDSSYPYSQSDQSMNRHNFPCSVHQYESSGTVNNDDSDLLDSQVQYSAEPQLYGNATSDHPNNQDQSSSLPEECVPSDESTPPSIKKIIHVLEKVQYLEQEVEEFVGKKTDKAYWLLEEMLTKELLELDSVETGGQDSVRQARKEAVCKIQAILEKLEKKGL
# UniProt O95197: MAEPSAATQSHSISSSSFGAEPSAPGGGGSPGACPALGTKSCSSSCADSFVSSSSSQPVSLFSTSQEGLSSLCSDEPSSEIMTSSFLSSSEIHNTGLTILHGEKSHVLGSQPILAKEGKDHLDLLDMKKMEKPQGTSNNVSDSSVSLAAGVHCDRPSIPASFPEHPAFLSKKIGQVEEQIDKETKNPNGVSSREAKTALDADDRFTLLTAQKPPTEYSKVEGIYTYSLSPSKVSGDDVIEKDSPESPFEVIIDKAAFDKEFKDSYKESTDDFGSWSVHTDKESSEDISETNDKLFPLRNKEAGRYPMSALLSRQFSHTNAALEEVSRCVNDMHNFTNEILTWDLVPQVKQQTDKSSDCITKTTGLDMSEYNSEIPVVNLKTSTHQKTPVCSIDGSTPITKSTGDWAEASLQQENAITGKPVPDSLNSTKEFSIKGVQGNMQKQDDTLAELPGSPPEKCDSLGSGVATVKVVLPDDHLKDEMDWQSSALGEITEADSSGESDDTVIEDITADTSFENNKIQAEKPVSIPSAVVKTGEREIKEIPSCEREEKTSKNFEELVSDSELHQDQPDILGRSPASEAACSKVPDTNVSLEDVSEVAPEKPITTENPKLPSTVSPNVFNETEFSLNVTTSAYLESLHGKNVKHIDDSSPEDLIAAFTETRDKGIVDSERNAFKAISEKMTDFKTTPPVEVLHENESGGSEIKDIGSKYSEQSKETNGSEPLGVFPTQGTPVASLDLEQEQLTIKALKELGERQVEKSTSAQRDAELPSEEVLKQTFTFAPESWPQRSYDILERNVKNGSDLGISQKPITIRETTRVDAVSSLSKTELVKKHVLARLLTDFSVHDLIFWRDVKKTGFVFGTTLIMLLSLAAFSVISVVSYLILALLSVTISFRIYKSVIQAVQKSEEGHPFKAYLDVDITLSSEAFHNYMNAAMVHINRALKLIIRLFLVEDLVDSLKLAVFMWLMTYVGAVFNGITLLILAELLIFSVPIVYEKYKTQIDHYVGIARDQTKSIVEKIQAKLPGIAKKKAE
# UniProt O75792: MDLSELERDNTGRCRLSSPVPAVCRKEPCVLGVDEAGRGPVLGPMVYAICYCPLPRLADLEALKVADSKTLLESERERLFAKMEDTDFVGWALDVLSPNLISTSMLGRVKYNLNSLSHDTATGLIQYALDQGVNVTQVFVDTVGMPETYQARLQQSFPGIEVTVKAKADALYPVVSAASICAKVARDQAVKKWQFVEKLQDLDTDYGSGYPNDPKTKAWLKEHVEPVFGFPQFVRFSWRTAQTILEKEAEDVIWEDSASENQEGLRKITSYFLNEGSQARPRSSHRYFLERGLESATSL
# UniProt O75607: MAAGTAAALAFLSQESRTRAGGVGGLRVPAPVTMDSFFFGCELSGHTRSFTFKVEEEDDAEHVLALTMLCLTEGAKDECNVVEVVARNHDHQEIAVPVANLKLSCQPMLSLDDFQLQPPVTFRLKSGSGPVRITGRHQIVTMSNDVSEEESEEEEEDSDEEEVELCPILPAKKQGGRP
# UniProt O75558: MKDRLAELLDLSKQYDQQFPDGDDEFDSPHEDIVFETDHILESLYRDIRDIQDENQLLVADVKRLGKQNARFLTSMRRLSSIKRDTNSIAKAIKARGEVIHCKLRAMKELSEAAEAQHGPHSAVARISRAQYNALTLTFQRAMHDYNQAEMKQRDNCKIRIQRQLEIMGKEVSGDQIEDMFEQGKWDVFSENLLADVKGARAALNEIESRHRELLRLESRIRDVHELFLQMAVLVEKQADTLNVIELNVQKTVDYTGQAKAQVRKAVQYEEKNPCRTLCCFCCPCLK
# UniProt O60888: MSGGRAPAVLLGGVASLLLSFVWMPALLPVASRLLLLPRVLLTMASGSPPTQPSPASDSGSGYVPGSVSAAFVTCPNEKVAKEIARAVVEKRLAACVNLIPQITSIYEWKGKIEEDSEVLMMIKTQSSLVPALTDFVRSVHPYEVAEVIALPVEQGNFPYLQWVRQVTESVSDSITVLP
# UniProt O75794: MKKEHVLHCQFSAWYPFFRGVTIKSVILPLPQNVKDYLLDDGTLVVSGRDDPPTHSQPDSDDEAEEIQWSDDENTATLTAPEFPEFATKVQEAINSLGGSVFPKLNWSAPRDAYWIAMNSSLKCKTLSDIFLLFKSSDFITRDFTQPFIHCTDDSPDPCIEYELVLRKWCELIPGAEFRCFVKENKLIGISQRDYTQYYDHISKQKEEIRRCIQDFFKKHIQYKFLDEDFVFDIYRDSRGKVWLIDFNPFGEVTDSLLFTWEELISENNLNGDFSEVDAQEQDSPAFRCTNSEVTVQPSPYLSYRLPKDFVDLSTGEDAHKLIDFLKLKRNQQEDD
# UniProt O75379: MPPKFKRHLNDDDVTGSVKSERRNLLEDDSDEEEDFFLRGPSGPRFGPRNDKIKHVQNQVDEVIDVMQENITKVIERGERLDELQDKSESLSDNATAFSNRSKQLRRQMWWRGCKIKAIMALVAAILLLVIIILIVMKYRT
# UniProt O75828: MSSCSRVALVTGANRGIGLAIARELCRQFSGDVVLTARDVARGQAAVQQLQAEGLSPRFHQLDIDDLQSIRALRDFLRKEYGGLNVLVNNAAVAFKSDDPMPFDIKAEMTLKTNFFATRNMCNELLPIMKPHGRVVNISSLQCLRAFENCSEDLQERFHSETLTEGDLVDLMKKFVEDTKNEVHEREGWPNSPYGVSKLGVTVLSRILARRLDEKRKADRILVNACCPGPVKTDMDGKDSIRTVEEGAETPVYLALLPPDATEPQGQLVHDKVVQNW
# UniProt O60880: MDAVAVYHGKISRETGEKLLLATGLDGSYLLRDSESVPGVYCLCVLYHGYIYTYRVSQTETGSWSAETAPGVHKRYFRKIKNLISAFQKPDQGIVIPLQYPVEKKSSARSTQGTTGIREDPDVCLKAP
# UniProt O60826, whole entry: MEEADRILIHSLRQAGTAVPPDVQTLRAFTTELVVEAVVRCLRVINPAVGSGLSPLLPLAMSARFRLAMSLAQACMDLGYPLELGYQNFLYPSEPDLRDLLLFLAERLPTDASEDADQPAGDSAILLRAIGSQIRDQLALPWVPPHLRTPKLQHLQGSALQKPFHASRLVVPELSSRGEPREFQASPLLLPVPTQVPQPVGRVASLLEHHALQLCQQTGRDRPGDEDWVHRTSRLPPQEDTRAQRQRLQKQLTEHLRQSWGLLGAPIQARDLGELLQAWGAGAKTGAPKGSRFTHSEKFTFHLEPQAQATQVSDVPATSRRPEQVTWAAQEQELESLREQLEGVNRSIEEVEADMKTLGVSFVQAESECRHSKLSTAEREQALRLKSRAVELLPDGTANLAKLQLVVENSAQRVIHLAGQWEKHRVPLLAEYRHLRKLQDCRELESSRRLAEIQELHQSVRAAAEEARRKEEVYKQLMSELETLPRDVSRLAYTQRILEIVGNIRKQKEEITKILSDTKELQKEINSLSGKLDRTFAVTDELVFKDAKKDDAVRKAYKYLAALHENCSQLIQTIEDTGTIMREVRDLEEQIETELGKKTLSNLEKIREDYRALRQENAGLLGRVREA
# UniProt O95400: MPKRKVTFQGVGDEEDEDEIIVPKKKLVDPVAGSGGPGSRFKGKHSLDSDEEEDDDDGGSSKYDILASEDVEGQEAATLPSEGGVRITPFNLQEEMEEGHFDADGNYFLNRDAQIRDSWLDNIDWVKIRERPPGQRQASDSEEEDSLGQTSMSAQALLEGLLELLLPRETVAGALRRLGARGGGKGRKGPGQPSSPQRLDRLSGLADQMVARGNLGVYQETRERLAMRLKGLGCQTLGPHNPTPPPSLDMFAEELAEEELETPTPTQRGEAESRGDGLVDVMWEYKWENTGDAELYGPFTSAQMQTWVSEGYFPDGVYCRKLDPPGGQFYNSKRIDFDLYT
# ± gives the standard deviation of the averaged measurements. The entries are a selection whose mix differs from that of the whole data set.
# Compound: Nc1ncnc2c1ncn2[C@@H]1O[C@H](COP(=O)(O)OP(=O)(O)NP(=O)(O)O)[C@@H](O)[C@H]1O [adenylyl imidodiphosphate]
# Test: NP40-soluble protein abundance relative to vehicle (solubility fold change) (ratio); higher = more soluble protein in presence of AMP-PNP
# How it was run: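 Jurkat crude lysate (Dounce-homogenised) was treated with eight concentrations from 0.1 to 10 mM for 10 min at room temperature, then 3 min at 37 °C. It was solubilised with 0.8% NP40 and benzonase (60 min, 4 °C) and ultracentrifuged, and the supernatant was TMT-labelled for LC-MS/MS. Intensities were vsn-normalised, and the value is the fold change against the NP40-processed vehicle per replicate, from three independent experiments.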
Target,NP40-soluble protein abundance (concentration: 1mM),NP40-soluble protein abundance (concentration: 2mM),NP40-soluble protein abundance (concentration: 4mM),NP40-soluble protein abundance (concentration: 6mM),NP40-soluble protein abundance (concentration: 8mM),NP40-soluble protein abundance (concentration: 10mM)
UniProt O95155 and related entries,0.992 ± 0.021,0.9829 ± 0.005,0.998 ± 0.019,0.985 ± 0.016,0.968 ± 0.02,0.986 ± 0.032
UniProt O95696 and related entries,1.003 ± 0.006,1.04 ± 0.046,0.99 ± 0.024,1.03 ± 0.016,1.026 ± 0.0089,1.04 ± 0.013
UniProt O95169 and related entries,0.9691 ± 0.0052,1 ± 0.057,0.916 ± 0.027,0.918 ± 0.045,0.922 ± 0.043,0.893 ± 0.037
UniProt O75787 and related entries,1.045 ± 0.0093,1.03 ± 0.02,1.02 ± 0.029,1.01 ± 0.024,1 ± 0.045,1.05 ± 0.076
VPS4B (UniProt O75351),1.022 ± 0.0068,1.02 ± 0.018,0.997 ± 0.034,1.03 ± 0.025,1.01 ± 0.014,1.01 ± 0.053
UniProt O95613 and related entries,0.956 ± 0.042,1 ± 0.048,1.13 ± 0.044,1.02 ± 0.05,1.05 ± 0.041,0.981 ± 0.052
CCNT1 (UniProt O60563),1.1 ± 0.051,1.19 ± 0.074,1.21 ± 0.064,1.25 ± 0.12,1.31 ± 0.11,1.4 ± 0.14
UniProt O75419 and related entries,0.974 ± 0.04,0.939 ± 0.044,0.974 ± 0.057,0.978 ± 0.028,0.994 ± 0.01,0.959 ± 0.019
UniProt O95429 and related entries,0.9743 ± 0.0062,1.007 ± 0.0085,0.9778 ± 0.0036,1.002 ± 0.0031,0.989 ± 0.014,0.9849 ± 0.0067
MOCS3 (UniProt O95396),1.03 ± 0.055,1.03 ± 0.045,1.02 ± 0.021,0.982 ± 0.056,1.01 ± 0.047,1.02 ± 0.051
UniProt O75164,0.979 ± 0.034,0.949 ± 0.039,0.971 ± 0.032,0.9648 ± 0.004,0.959 ± 0.029,0.959 ± 0.049
UniProt O60784 and related entries,1.02 ± 0.03,1.07 ± 0.11,1.07 ± 0.032,0.984 ± 0.024,0.974 ± 0.024,0.983 ± 0.052
UniProt O95197 and related entries,0.983 ± 0.035,1 ± 0.1,1.01 ± 0.057,0.985 ± 0.099,0.969 ± 0.15,0.988 ± 0.15
UniProt O75145 and related entries,1.01 ± 0.036,1.06 ± 0.05,1.015 ± 0.006,0.994 ± 0.038,0.941 ± 0.025,0.965 ± 0.015
RNASEH2A (UniProt O75792),0.987 ± 0.032,0.947 ± 0.08,0.934 ± 0.053,0.94 ± 0.024,0.933 ± 0.038,0.913 ± 0.048
VPS26A (UniProt O75436),0.946 ± 0.045,0.861 ± 0.062,0.895 ± 0.019,0.872 ± 0.032,0.931 ± 0.046,0.829 ± 0.02
NPM3 (UniProt O75607),0.996 ± 0.027,0.997 ± 0.045,1.03 ± 0.021,1.02 ± 0.034,1.02 ± 0.05,1.04 ± 0.028

# Reformatted tab-delimited: part of the list above
Target	NP40-soluble protein abundance (concentration: 1mM)	NP40-soluble protein abundance (concentration: 2mM)	NP40-soluble protein abundance (concentration: 4mM)	NP40-soluble protein abundance (concentration: 6mM)	NP40-soluble protein abundance (concentration: 8mM)	NP40-soluble protein abundance (concentration: 10mM)
UniProt O95696 and related entries	1.003 ± 0.006	1.04 ± 0.046	0.99 ± 0.024	1.03 ± 0.016	1.026 ± 0.0089	1.04 ± 0.013
VPS26A (UniProt O75436)	0.946 ± 0.045	0.861 ± 0.062	0.895 ± 0.019	0.872 ± 0.032	0.931 ± 0.046	0.829 ± 0.02

# The listing continues.

Target,NP40-soluble protein abundance (concentration: 1mM),NP40-soluble protein abundance (concentration: 2mM),NP40-soluble protein abundance (concentration: 4mM),NP40-soluble protein abundance (concentration: 6mM),NP40-soluble protein abundance (concentration: 8mM),NP40-soluble protein abundance (concentration: 10mM)
UniProt O75398-5|O75398 and related entries,1.03 ± 0.061,1.06 ± 0.029,1.02 ± 0.016,1.03 ± 0.028,1.03 ± 0.011,1.04 ± 0.015
UniProt O75558,1.01 ± 0.041,1.01 ± 0.013,1.02 ± 0.027,1.002 ± 0.007,0.989 ± 0.035,0.9879 ± 0.0066
UniProt O60888 and related entries,1.028 ± 0.0045,1.11 ± 0.057,1.07 ± 0.043,1.02 ± 0.051,0.999 ± 0.054,1.02 ± 0.094
ROCK2 (UniProt O75116),1.04 ± 0.027,1.09 ± 0.022,1.04 ± 0.031,1.02 ± 0.035,0.992 ± 0.017,1.03 ± 0.035
ZC3H11A (UniProt O75152),0.86 ± 0.11,0.883 ± 0.1,0.853 ± 0.13,0.936 ± 0.094,0.933 ± 0.098,1.03 ± 0.098
TMEM63A (UniProt O94886),1.03 ± 0.058,1.08 ± 0.046,1.03 ± 0.056,0.987 ± 0.034,0.962 ± 0.049,1.02 ± 0.05
UniProt O95104 and related entries,1.1 ± 0.033,1.22 ± 0.083,1.26 ± 0.039,1.34 ± 0.14,1.39 ± 0.071,1.46 ± 0.063
UniProt O95243-2|O95243-5|O95243,1.009 ± 0.01,1 ± 0.027,1.05 ± 0.037,1.031 ± 0.0075,1.04 ± 0.011,1.068 ± 0.0071
CDC123 (UniProt O75794),1.01 ± 0.075,1.02 ± 0.064,1.03 ± 0.046,1.06 ± 0.046,1.07 ± 0.037,1.03 ± 0.056
RANBP6 (UniProt O60518),0.989 ± 0.06,0.974 ± 0.016,0.993 ± 0.029,0.978 ± 0.023,0.974 ± 0.044,0.963 ± 0.029
UniProt O75379 and related entries,1.01 ± 0.042,1.05 ± 0.076,1.01 ± 0.026,0.988 ± 0.021,0.995 ± 0.035,1 ± 0.016
CBR3 (UniProt O75828),1 ± 0.045,0.984 ± 0.022,0.98 ± 0.018,0.983 ± 0.026,0.994 ± 0.031,0.986 ± 0.025
CTSV (UniProt O60911),0.981 ± 0.042,1.04 ± 0.028,0.997 ± 0.042,1 ± 0.024,0.976 ± 0.022,1.02 ± 0.027
UniProt O60880 and related entries,0.868 ± 0.025,0.926 ± 0.025,0.893 ± 0.054,0.873 ± 0.021,0.843 ± 0.029,0.823 ± 0.04
CCDC22 (UniProt O60826),0.993 ± 0.028,1.027 ± 0.008,1 ± 0.026,0.97 ± 0.042,0.95 ± 0.038,0.971 ± 0.043
CD2BP2 (UniProt O95400),1.02 ± 0.056,1.05 ± 0.065,1.02 ± 0.059,1.02 ± 0.069,0.981 ± 0.073,1.05 ± 0.078
